PubChem BioAssay AID1259254 | NCATS, 2017

Aim: 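Gene knock-downs that lead to re-replication, shown by excess G2 DNA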 (primary screen)
Cell system: human HCT116 colorectal cancer cells
Reagents: single siRNA against human genes
Timing: 3 days
Detection: 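Imaged Hoechst DNA stain sorts each cell into a cycle phase by DNA amount; per plate, G2 fraction set to 0% for non-targeting and 100% for GMNN siRNA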
Reading the numbers: G2 robust z-score and G2 cells, % of GMNN control: higher = more G2 cells, more excess DNA replication; raw share of cells in G2: higher = larger share of cells with G2 DNA content
Call rule: 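An siRNA counts as active if its G2 robust z-score lies at least 5 MADs above the screen median; here such calls match roughly 38% of GMNN control or more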
Shown is one part, drawn at random, of about 59,000 reagents tested. About 1,550 of all reagents (2.6%) were called active. 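G2 share is only a proxy for re-replication; each gene was hit by three separate siRNAs, and active genes were retested.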 Raw values are not corrected between plates. A number with no mark means an inactive call. Reagents against one gene are numbered here. Not stated in the record: the amount of reagent.

target gene	siRNA no.	G2 robust z-score	G2 cells, % of GMNN control	raw share of cells in G2 (%)
OR2A4	1	1.92	16.5	11.7
OR2A4	2	-0.656	-1.65	3.87
OR2A4	3	2.58	21.1	8.27
H2BC13	1	0.898	9.29	9.25
H2BC13	2	0.281	4.94	5.85
H2BC13	3	-0.526	-0.735	3.09
RAB40C	1	-0.346	0.533	5.87
RAB40C	2	-0.622	-1.41	3.85
RAB40C	3	0.256	4.77	5.96
CCDC142	1	-0.194	1.6	4.76
CCDC142	2	1.81	15.7	7.92
CCDC142	3	-0.799	-2.65	2.08
LINC02906	1	2.07	17.5	9.78
LINC02906	2	0.239	4.65	5.43
LINC02906	3	1.42	12.9	10.2
FZD10	1	0.366	5.54	7.82
FZD10	2	-0.426	-0.0333	4.51
FZD10	3	-1.07	-4.56	1.87
BTBD1	1	-0.932	-3.59	2.92
BTBD1	2	-1.2	-5.47	3.47
BTBD1	3	0.0961	3.64	5.2
DNAI7	1	0.536	6.74	7.11
DNAI7	2	-0.516	-0.661	3.86
DNAI7	3	-0.234	1.32	3.56
EEF1A1	1	-0.379	0.298	5.35
EEF1A1	2	-0.101	2.26	6.12
EEF1A1	3	0.343	5.38	5.58
DPH5	1	-0.368	0.375	3.94
DPH5	2	-0.512	-0.636	5.66
DPH5	3	1.68	14.8	9.71

Part of the list above, showing only “G2 robust z-score”:
DNAI7 #1	0.536
DNAI7 #2	-0.516
DNAI7 #3	-0.234
EEF1A1 #1	-0.379
